Assay results: the M2OR odorant receptor database
The entries are a selection whose mix differs from that of the whole data set. The calls were merged from several studies; some rest on single wells. Some of the results follow.

Legend:
Conditions in all cases: stereoisomer not certain
OR5M11 (Homo sapiens) = biological target: T1, OR5M11 (Homo sapiens) (UniProt Q96RB7)
T1 sequence (whole entry): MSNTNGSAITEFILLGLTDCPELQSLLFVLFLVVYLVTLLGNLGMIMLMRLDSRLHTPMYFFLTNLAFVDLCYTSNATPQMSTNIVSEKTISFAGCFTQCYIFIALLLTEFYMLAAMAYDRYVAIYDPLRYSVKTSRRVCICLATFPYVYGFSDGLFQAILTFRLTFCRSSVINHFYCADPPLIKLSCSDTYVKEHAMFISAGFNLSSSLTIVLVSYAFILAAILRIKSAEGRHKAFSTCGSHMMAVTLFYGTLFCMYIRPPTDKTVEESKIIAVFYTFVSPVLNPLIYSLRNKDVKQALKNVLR
Outline: (§1)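 Whether a receptor–molecule pair is responsive (active) rests on the original authors' judgment that its measured signal was statistically different from baseline. Pairs without that judgment are non-responsive (inactive). Sources used varied assay methods, commonly transient luciferase assays in mammalian cell lines.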

OR5M1 = system: T2, OR5M1
T2 sequence (whole entry): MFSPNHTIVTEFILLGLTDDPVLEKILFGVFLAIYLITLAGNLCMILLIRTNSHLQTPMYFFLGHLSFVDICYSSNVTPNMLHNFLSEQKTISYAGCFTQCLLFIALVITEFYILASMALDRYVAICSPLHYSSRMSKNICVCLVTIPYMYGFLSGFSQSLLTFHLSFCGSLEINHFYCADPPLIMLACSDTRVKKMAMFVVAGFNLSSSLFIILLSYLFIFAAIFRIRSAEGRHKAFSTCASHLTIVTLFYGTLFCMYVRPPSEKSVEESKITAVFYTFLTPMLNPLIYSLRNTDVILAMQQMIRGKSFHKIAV
Outline: as §1

OR5M3 (Homo sapiens) = biological target: T3, OR5M3 (Homo sapiens) (UniProt Q8NGP4)
T3 sequence (whole entry): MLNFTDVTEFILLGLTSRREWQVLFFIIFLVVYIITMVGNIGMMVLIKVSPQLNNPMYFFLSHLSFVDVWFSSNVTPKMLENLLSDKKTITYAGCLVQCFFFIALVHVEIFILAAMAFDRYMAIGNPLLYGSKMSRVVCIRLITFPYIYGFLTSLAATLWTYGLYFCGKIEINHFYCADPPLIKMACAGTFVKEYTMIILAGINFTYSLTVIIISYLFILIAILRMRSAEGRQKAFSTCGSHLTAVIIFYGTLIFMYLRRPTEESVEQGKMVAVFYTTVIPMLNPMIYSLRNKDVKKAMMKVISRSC
Outline: as §1

OR5M8 (Homo sapiens) = biological target: T4, OR5M8 (Homo sapiens) (UniProt Q8NGP6)
T4 sequence (whole entry): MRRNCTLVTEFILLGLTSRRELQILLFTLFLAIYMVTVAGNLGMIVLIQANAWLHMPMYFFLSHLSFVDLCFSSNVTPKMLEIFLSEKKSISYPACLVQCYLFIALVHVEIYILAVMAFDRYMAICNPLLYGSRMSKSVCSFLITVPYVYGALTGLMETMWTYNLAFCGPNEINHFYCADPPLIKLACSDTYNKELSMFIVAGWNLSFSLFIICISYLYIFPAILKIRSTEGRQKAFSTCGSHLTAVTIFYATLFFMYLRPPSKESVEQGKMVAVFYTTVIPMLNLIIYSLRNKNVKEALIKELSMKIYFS
Outline: as §1

OR5M9 (Homo sapiens) = biological target: T5, OR5M9 (Homo sapiens) (UniProt Q8NGP3)
T5 sequence (whole entry): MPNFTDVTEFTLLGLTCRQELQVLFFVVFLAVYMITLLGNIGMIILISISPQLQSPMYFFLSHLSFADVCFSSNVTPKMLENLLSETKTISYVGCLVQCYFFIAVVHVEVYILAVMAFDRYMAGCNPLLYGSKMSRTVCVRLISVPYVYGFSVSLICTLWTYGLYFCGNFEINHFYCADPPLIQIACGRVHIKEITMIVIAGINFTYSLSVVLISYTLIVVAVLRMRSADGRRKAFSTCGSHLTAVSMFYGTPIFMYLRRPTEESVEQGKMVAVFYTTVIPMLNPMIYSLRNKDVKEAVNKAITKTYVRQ
Outline: as §1

OR5MA = system: T6, OR5MA
T6 sequence (whole entry): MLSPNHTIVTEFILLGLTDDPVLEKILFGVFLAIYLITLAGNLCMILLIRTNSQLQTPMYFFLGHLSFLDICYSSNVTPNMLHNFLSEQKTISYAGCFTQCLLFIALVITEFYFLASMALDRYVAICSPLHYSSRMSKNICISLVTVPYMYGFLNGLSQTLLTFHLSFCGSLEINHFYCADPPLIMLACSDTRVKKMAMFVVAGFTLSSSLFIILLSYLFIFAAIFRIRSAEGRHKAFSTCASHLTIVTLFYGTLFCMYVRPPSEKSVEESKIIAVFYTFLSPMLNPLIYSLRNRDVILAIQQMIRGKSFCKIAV
Outline: as §1

OR5P2 (Homo sapiens) = biological target: T7, OR5P2 (Homo sapiens) (UniProt Q8WZ92)
T7 sequence (whole entry): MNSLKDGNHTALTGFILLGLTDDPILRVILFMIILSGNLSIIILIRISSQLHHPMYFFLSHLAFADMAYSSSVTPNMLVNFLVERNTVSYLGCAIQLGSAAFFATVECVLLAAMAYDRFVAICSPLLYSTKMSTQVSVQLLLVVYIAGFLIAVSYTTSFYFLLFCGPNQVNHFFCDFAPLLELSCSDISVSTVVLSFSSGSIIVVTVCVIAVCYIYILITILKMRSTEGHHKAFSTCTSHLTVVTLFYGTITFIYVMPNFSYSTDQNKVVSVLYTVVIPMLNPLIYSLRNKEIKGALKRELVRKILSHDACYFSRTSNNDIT
Outline: as §1

OR5P3 (Homo sapiens) = biological target: T8, OR5P3 (Homo sapiens) (UniProt Q8WZ94)
T8 sequence (whole entry): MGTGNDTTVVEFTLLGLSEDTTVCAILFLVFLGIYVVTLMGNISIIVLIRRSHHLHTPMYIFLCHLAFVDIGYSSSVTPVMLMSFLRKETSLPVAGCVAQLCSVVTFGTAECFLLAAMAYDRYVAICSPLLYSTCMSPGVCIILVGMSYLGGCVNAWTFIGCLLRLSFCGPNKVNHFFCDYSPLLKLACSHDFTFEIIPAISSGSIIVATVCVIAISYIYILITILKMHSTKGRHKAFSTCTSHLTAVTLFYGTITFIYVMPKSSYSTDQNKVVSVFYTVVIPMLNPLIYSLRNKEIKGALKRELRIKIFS
Outline: as §1

OR5R1 = system: T9, OR5R1
T9 sequence (whole entry): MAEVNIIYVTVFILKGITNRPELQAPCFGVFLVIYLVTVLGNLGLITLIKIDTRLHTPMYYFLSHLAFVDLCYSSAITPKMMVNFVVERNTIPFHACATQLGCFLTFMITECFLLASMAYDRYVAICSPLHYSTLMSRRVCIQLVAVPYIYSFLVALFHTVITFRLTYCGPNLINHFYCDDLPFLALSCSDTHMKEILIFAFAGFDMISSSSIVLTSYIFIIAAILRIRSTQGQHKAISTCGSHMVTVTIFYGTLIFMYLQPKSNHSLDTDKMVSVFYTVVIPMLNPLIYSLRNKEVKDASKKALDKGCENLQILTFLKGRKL
Outline: as §1

OR5M10 (Homo sapiens) = OR5M10 (Homo sapiens) (UniProt Q6IEU7)
Outline: as §1

Measured: odorant receptor agonist call;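 note: active if original authors judged signal statistically different from baseline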

CC(=O)C(C)=O
not listed: OR5M10 (Homo sapiens)
inactive: all other assays above

CC(C)=CCCC(C)=CC=O
not listed: OR5M3 (Homo sapiens) | OR5M10 (Homo sapiens)
inactive: all other assays above

CC12C=CCC1C1CCC3CC(=O)CCC3(C)C1CC2 (configuration not stated)
active: OR5M1
not listed: OR5M3 (Homo sapiens) | OR5M9 (Homo sapiens) | OR5P2 (Homo sapiens)
inactive: all other assays above

CCCC(=O)O
not listed: OR5M10 (Homo sapiens)
inactive: all other assays above

c1cnccn1
not listed: OR5M3 (Homo sapiens) | OR5M10 (Homo sapiens)
inactive: all other assays above

CCCCCCCCC=O
inactive: OR5M3 (Homo sapiens) | OR5P3 (Homo sapiens)

COC(=O)c1ccccc1
active: OR5P3 (Homo sapiens)
not listed: OR5M11 (Homo sapiens) | OR5MA | OR5M10 (Homo sapiens)
inactive: all other assays above

CC1COCc2cc3c(cc21)C(C)(C)C(C)C3(C)C (configuration not stated)
inactive: OR5M11 (Homo sapiens) | OR5MA | OR5P3 (Homo sapiens) | OR5R1
active: OR5M1 | OR5M8 (Homo sapiens) | OR5M9 (Homo sapiens) | OR5P2 (Homo sapiens)

C=C(C)C1CC=C(C)C(=O)C1 (configuration not stated)
inactive: OR5M3 (Homo sapiens)
active: OR5P3 (Homo sapiens)

CC(C)(O)CCCC1=CCC(C=O)CC1 (configuration not stated)
inactive: OR5M11 (Homo sapiens) | OR5M9 (Homo sapiens) | OR5MA | OR5P3 (Homo sapiens)

CC(=O)c1ccccc1
active: OR5P3 (Homo sapiens)
inactive: OR5M1 | OR5M8 (Homo sapiens) | OR5M9 (Homo sapiens) | OR5P2 (Homo sapiens) | OR5R1

CCCCCCCOC(C)=O
not listed: OR5M3 (Homo sapiens) | OR5M10 (Homo sapiens)
inactive: all other assays above

CC(C)CCC(=O)O
not listed: OR5M3 (Homo sapiens) | OR5M10 (Homo sapiens)
inactive: all other assays above

CC1CCC(C(C)C)C(O)C1 (configuration not stated)
active: OR5M11 (Homo sapiens) | OR5M8 (Homo sapiens) | OR5P3 (Homo sapiens)
not listed: OR5M3 (Homo sapiens) | OR5M10 (Homo sapiens)
inactive: all other assays above

c1ccc(Oc2ccccc2)cc1
not listed: OR5M3 (Homo sapiens) | OR5M10 (Homo sapiens)
inactive: all other assays above

CCCCCCCCCCC=O
not listed: OR5M3 (Homo sapiens) | OR5M10 (Homo sapiens)
inactive: all other assays above

CC(C)(C)c1ccc(CCC=O)cc1
not listed: OR5M3 (Homo sapiens) | OR5M10 (Homo sapiens)
inactive: all other assays above

CC1=NC(C)SC1C (configuration not stated)
inactive: OR5M1 | OR5M8 (Homo sapiens) | OR5M9 (Homo sapiens) | OR5P2 (Homo sapiens) | OR5P3 (Homo sapiens) | OR5R1

CCC1(O)C2(C)CCC(C2)C1(C)C (configuration not stated)
not listed: OR5M3 (Homo sapiens) | OR5M10 (Homo sapiens)
inactive: all other assays above

COC(=O)c1ccccc1O
active: OR5P3 (Homo sapiens)
not listed: OR5M3 (Homo sapiens) | OR5M10 (Homo sapiens)
inactive: all other assays above

C=CCc1ccc(O)c(OC)c1
inactive: OR5M3 (Homo sapiens)

CC(=O)OC(C)(C)C1CC=C(C)CC1 (configuration not stated)
not listed: OR5M3 (Homo sapiens) | OR5M10 (Homo sapiens)
inactive: all other assays above

C=C(C)C1CCC2=CC(=O)CC(C)C2(C)C1 (configuration not stated)
inactive: OR5M11 (Homo sapiens) | OR5MA

CCCCCCC=O
inactive: OR5P3 (Homo sapiens)

CCCCCC(C)=O
inactive: OR5M1 | OR5M8 (Homo sapiens) | OR5M9 (Homo sapiens) | OR5P2 (Homo sapiens) | OR5P3 (Homo sapiens) | OR5R1

CCCCCCOC(=O)CCC
not listed: OR5M3 (Homo sapiens) | OR5M10 (Homo sapiens)
inactive: all other assays above

C=CCSCC=C
not listed: OR5M3 (Homo sapiens) | OR5M10 (Homo sapiens)
inactive: all other assays above

C=CCc1ccc(OC(C)=O)c(OC)c1
active: OR5M11 (Homo sapiens) | OR5P2 (Homo sapiens)
not listed: OR5M3 (Homo sapiens) | OR5M10 (Homo sapiens)
inactive: all other assays above

CCCCCOC(C)=O
not listed: OR5M3 (Homo sapiens) | OR5M10 (Homo sapiens)
inactive: all other assays above

O=C1CCCCCCCCCCCC(=O)OCCO1
not listed: OR5M3 (Homo sapiens) | OR5M10 (Homo sapiens)
inactive: all other assays above

O=C1CCCCCCCCCCCCCCO1
not listed: OR5M3 (Homo sapiens) | OR5M10 (Homo sapiens)
inactive: all other assays above

O=C1CCCCC1
inactive: OR5M1 | OR5M8 (Homo sapiens) | OR5M9 (Homo sapiens) | OR5P2 (Homo sapiens) | OR5P3 (Homo sapiens) | OR5R1
